No constants are given. Whether binding was seen depends on the method and setting. Some entries that bind do so weakly or less than the wild type. Where a sequence is shown, tags or fusion partners need not be part of it.
Target: T1, COP1 SUPPRESSOR 2 (CSU2), full length, LexA fusion (Arabidopsis thaliana) (UniProt F4HVZ5)
T1 sequence: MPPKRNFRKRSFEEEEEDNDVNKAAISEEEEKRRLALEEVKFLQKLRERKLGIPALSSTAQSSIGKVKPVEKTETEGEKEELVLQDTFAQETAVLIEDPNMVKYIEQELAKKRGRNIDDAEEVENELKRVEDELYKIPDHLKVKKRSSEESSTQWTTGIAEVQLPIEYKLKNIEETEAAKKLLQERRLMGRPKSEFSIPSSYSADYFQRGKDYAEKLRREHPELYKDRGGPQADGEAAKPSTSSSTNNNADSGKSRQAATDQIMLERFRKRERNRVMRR
Assay: two-hybrid; LexA-based yeast two-hybrid system (BD Clontech), LexA-CSU2 fusions and B42AD-COP1 fusions co-transformed into yeast strain EGY48, β-galactosidase activity

binding: binds
B1: COP1 N282, B42 activation domain fusion (domain or fragment, UniProt P43254 1-282)
chain: MEEISTDPVVPAVKPDPRTSSVGEGANRHENDDGGSGGSEIGAPDLDKDLLCPICMQIIKDAFLTACGHSFCYMCIITHLRNKSDCPCCSQHLTNNQLYPNFLLDKLLKKTSARHVSKTASPLDQFREALQRGCDVSIKEVDNLLTLLAERKRKMEQEEAERNMQILLDFLHCLRKQKVDELNEVQTDLQYIKEDINAVERHRIDLYRARDRYSVKLRMLGDDPSTRNAWPHEKNQIGFNSNSLSIRGGNFVGNYQNKKVEGKAQGSSHGLPKKDALSGSDS

Source: article PMC4694719
